The source of these data is PMC3066133.

The target in this test is HA-RI332, C-terminally truncated form of ribophorin-I with an HA epitope. Description: co-IP.

These are yes or no findings as the source states them, for the method shown. Binding seen in cells or lysates may run through a third protein. Binding can be weak; no strength is given.

B1: OS9 (protein, UniProt Q13438 26-667)
chain: GGVGSLNLEELSEMRYGIEILPLPVMGGQSQSSDVVIVSSKYKQRYECRLPAGAIHFQREREEETPAYQGPGIPELLSPMRDAPCLLKTKDWWTYEFCYGRHIQQYHMEDSEIKGEVLYLGYYQSAFDWDDETAKASKQHRLKRYHSQTYGNGSKCDLNGRPREAEVRFLCDEGAGISGDYIDRVDEPLSCSYVLTIRTPRLCPHPLLRPPPSAAPQAILCHPSLQPEEYMAYVQRQADSKQYGDKIIEELQDLGPQVWSETKSGVAPQKMAGASPTKDDSKDSDFWKMLNEPEDQAPGGEEVPAEEQDPSPEAADSASGAPNDFQNNVQVKVIRSPADLIRFIEELKGGTKKGKPNIGQEQPVDDAAEVPQREPEKERGDPERQREMEEEEDEDEDEDEDEDERQLLGEFEKELEGILLPSDRDRLRSEVKAGMERELENIIQETEKELDPDGLKKESERDRAMLALTSTLNKLIKRLEEKQSPELVKKHKKKRVVPKKPPPSPQPTEEDPEHRVRVRVTKLRLGGPNQDLTVLEMKRENPQLKQIEGLVKELLEREGLTAAGKIEIKIVRPWAEGTEEGARWLTDEDTRNLKEIFFNILVPGAEEAQKERQRQKELESNYRRVWGSPGGEGTGDLDEFDF
On to B1, for which the binding result is given as “binds”.
